Results are given in words; binding and its absence hold for the method and conditions named. Binding seen in cells or lysates may run through a third protein. Some entries that bind do so weakly or less than the wild type. Where a sequence is shown, tags or fusion partners need not be part of it.
Target: T1, FLAG Foxi3 FL 1–399 (mouse) (UniProt D3Z120)
T1 sequence: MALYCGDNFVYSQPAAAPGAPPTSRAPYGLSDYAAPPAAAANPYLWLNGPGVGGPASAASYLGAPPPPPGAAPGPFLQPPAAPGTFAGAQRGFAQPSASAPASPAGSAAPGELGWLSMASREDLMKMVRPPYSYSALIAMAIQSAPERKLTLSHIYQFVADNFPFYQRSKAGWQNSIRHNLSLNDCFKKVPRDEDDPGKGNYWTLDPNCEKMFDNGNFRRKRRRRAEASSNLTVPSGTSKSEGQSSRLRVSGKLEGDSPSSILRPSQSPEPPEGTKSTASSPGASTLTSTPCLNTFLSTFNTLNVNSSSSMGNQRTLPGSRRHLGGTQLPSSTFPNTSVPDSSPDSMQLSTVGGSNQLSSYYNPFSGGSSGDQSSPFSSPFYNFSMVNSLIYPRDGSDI
Assay: co-IP; Myc-tagged PP2A subunits co-transfected with FLAG Foxi3 in HEK-293T; anti-Flag M2 magnetic beads, 500 µg lysate, overnight at 4 °C, CoIP lysis buffer (Tris-HCl 25 mM pH 7.5, NaCl 150 mM, EDTA 1 mM, NP-40 1%, glycerol 5%, DTT 1 mM, phosphatase inhibitors); blot with MYC antibody

Chains of the proteins cited; added tags and fusions are not shown.
UniProt P62715: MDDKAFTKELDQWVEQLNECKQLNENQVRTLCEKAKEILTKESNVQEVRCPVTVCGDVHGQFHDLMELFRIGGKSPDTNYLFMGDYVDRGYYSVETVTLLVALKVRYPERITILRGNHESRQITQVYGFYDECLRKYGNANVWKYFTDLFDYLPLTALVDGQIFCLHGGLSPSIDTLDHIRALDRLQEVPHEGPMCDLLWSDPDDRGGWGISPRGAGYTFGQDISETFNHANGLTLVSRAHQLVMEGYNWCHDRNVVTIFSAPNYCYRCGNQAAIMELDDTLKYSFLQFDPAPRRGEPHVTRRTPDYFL

binding: binds
Substance: Myc-tagged PPP2CB (from UniProt P62715 1-309) (enzyme)

From PMC6250667
